Results from the supplement of paper PMC10849652.
The other results are listed elsewhere or left out.

Chains of the proteins cited; added tags and fusions are not shown. Lines headed by an entry give the natural chain unless they say otherwise; changes in a name come on top.
UniProt Q9BUW7: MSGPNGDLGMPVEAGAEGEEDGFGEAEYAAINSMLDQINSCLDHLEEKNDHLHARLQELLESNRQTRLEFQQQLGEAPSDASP
UniProt Q9BSF8: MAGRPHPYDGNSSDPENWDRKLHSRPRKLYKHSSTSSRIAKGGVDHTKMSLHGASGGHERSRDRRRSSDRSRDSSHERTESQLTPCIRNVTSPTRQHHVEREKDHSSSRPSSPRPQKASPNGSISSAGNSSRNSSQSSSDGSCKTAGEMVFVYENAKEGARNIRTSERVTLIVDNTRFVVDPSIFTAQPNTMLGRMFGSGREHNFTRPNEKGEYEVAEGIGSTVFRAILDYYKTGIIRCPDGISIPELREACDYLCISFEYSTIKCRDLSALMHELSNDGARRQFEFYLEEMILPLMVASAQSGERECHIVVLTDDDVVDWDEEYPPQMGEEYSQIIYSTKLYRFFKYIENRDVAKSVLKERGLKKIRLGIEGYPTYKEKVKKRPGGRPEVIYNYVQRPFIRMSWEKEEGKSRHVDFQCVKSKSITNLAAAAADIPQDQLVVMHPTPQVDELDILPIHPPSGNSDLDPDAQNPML
UniProt Q9GZU0: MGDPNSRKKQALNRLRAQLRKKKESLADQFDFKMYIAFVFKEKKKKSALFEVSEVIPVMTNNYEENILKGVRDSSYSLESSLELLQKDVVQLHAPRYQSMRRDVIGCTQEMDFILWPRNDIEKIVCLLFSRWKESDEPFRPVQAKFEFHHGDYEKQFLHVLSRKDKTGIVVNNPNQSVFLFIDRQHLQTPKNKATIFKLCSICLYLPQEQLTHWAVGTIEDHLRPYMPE
UniProt Q6UX52: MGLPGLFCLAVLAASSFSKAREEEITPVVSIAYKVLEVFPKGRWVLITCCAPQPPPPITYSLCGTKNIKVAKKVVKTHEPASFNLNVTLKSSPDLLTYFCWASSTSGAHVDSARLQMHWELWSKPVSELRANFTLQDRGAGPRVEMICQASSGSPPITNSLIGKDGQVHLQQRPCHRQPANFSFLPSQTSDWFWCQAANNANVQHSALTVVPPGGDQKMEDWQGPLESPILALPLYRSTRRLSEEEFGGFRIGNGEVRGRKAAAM
UniProt Q7Z6I8: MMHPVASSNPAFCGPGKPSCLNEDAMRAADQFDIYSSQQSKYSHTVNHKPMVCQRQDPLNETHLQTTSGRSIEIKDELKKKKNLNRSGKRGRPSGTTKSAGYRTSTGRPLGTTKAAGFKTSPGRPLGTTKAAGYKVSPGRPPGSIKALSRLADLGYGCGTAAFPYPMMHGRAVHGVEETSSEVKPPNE
UniProt Q8N5S9: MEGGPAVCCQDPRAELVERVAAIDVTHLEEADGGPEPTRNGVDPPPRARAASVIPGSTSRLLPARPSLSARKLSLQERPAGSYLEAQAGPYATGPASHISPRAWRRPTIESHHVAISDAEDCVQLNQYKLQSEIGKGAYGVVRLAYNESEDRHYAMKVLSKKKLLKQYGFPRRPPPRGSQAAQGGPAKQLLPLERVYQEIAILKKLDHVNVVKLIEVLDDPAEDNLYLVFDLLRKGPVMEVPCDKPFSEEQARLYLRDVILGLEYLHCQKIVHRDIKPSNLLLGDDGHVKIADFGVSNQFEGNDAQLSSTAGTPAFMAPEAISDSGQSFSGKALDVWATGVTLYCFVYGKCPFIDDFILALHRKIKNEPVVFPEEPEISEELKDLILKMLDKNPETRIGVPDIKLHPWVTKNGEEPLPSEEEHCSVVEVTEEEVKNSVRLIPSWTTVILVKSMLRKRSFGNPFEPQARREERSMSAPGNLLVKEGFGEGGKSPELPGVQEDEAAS
UniProt Q9H741: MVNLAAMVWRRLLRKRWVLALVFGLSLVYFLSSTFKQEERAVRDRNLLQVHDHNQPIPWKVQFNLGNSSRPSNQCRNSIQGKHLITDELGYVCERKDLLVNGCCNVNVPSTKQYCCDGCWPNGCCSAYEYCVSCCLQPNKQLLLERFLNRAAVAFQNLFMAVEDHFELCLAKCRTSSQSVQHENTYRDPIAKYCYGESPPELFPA
UniProt Q9HB07: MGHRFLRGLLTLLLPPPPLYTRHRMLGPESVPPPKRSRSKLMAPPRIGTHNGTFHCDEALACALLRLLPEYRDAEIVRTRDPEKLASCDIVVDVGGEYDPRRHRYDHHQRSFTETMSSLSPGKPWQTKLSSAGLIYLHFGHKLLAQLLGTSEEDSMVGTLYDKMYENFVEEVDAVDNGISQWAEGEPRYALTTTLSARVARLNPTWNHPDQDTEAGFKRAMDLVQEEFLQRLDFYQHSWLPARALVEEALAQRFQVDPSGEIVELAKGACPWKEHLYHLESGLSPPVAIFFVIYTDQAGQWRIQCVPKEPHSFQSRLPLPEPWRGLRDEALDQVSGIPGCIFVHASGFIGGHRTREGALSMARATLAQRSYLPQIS
UniProt Q9NSK7: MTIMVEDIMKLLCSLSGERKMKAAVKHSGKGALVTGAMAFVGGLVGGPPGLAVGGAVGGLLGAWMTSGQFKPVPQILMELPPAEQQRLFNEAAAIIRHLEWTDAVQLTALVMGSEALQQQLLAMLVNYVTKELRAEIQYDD
UniProt Q504U0: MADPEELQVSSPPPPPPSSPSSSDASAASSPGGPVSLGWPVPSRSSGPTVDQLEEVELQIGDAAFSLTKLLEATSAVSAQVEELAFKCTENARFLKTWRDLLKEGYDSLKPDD
UniProt Q16581: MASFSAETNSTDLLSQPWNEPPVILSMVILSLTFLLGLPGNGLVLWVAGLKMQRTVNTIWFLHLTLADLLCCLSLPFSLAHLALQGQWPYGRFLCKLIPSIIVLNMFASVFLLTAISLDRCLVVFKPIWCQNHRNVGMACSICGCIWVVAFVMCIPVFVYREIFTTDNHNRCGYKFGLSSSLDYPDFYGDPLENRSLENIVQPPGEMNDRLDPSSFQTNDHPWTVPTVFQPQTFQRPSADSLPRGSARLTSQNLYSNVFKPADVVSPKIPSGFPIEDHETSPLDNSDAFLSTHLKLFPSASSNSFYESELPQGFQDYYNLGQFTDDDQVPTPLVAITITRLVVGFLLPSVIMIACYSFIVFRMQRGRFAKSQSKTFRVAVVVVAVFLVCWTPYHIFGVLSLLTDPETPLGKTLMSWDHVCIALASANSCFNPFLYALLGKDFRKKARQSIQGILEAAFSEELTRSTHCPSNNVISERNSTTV
UniProt P27482, whole entry, looked up: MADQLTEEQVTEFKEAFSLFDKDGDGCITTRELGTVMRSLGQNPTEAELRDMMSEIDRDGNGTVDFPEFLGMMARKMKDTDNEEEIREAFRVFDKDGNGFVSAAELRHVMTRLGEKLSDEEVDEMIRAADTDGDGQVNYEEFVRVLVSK
UniProt P02748: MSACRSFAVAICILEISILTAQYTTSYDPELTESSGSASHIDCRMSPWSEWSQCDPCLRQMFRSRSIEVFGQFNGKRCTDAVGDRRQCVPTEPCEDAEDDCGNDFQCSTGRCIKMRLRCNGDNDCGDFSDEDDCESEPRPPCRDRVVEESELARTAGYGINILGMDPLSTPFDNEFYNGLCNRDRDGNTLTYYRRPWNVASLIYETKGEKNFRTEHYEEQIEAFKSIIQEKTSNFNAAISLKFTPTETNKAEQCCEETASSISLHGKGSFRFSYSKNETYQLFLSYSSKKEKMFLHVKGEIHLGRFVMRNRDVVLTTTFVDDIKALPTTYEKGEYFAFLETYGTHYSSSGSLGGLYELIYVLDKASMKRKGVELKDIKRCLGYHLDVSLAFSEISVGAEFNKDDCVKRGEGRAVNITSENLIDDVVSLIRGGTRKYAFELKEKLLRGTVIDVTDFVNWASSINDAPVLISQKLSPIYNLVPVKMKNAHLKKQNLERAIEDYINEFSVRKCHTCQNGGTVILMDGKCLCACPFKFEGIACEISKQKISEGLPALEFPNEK
UniProt Q9BRJ6: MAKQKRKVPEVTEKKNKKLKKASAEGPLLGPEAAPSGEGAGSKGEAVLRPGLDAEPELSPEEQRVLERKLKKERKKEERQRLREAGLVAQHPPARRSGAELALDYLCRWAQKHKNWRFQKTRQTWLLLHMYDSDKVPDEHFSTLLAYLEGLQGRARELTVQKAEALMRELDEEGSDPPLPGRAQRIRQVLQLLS
UniProt P07358, whole entry, looked up: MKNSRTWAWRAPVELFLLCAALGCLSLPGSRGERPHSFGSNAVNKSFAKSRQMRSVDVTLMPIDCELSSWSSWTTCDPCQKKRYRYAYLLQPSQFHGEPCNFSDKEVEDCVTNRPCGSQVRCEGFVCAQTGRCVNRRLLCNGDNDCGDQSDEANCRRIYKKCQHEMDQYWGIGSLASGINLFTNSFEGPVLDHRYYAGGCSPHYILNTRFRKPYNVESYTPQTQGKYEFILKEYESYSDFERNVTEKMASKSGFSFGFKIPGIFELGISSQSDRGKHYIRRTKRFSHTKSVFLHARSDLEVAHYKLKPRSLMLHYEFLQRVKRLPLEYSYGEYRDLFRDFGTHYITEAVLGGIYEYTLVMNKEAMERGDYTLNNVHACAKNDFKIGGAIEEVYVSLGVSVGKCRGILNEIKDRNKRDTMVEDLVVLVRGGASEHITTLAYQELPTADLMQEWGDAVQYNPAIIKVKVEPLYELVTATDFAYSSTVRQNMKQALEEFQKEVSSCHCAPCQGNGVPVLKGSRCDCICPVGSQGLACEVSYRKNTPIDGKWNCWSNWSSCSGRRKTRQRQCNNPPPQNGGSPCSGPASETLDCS
UniProt Q9UQM7, whole entry, looked up: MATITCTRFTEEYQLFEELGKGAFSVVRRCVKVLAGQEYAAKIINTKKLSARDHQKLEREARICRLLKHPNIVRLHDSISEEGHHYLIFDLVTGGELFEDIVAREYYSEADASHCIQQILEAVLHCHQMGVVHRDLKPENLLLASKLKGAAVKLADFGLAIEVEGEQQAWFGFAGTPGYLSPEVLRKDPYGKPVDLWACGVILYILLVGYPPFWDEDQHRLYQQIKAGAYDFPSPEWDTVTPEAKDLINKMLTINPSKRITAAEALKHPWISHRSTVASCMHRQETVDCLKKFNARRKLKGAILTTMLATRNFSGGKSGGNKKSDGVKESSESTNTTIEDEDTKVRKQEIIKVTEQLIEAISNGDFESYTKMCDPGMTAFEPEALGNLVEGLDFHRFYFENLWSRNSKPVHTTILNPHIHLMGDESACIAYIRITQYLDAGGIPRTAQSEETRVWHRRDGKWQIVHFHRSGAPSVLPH

compound: Cc1cccc(CC(=O)N2CCc3c2ccc(-c2cn(C)c4ncnc(N)c24)c3F)n1; assay: log2 fold change, soluble protein after heating vs DMSO (PISA); higher = thermal stabilisation; K562 cells, 10 uM, 30 min; active = over 0.2 and 3.5 SD of the protein, either way, in both replicates (recomputed)
How it was run: (§1)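 K562 cells at 2×10^6 cells/mL were exposed to 10 μM compound for 30 min, then aliquots were heated for 3 min across 48°C-58°C, pooled, and extracted in PBS containing 0.5% NP-40 at 4°C. The supernatant after 21,000xg for 90 min was taken as soluble protein and measured by TMTpro 16plex LC-MS/MS with channel sums equalised. Thermal stability is reported relative to control samples, with values from duplicates. Fold changes are given on a log2 scale.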

log2 fold change, inactive:
C9orf16 (UniProt Q9BUW7) -0.323, BTBD10 isoform 2 (UniProt Q9BSF8) -0.227, C6orf62 (UniProt Q9GZU0) -0.095, C17orf99 (UniProt Q6UX52) -0.124, C5orf24 (UniProt Q7Z6I8) -0.033, CAMKK1 isoform 2 (UniProt Q8N5S9) -0.237, C12orf49 (UniProt Q9H741) 0.118, C12orf10 (UniProt Q9HB07) -0.031

compound: Cc1cn(-c2cc(NC(=O)c3ccc(C)c(Nc4nccc(-c5cccnc5)n4)c3)cc(C(F)(F)F)c2)cn1 [nilotinib]; assay: as above
How it was run: as §1

log2 fold change, inactive:
C19orf12 (UniProt Q9NSK7) -0.006, C4orf46 (UniProt Q504U0) -0.006, C9orf16 (UniProt Q9BUW7) -0.064, C3orf86 (UniProt P0DN24) -0.037, C5orf24 (UniProt Q7Z6I8) -0.384, C3AR1 (UniProt Q16581) 0.099

compound: Cc1nc(Nc2n[nH]c3c2CN(C(=O)N[C@H](CN(C)C)c2ccccc2)C3(C)C)c2sccc2n1; assay: as above
How it was run: as §1

log2 fold change, inactive:
C19orf12 (UniProt Q9NSK7) 0.089, C4orf46 (UniProt Q504U0) 0.238, C9orf16 (UniProt Q9BUW7) -0.057, C3orf86 (UniProt P0DN24) -0.446, C5orf24 (UniProt Q7Z6I8) 0.43, C3AR1 (UniProt Q16581) 0.202, CA2 (UniProt P00918) 0.014

compound: Cc1nc(Nc2ncc(C(=O)Nc3c(C)cccc3Cl)s2)cc(N2CCN(CCO)CC2)n1 [dasatinib]; assay: as above
How it was run: as §1

log2 fold change, inactive:
C9orf16 (UniProt Q9BUW7) 0.107, BTBD10 isoform 2 (UniProt Q9BSF8) 0.113, CALML3 (UniProt P27482) -0.282, C9 (UniProt P02748) -0.054, C7orf50 (UniProt Q9BRJ6) 0.207, CA1 (UniProt E5RIF9) -0.098, C8B (UniProt P07358) -0.048, C5orf24 (UniProt Q7Z6I8) 0.25, CA2 (UniProt P00918) 0.2, CAMK2A isoform 2 (UniProt Q9UQM7) -0.192
